This is an account of results in patent US20090203041A1, “BMP4 INHIBITORS” (priority 2006, published 2009).

No constants are given. Whether binding was seen depends on the method and setting. Binding seen in cells or lysates may run through a third protein. Some binding calls cover weakened binding; strength is not graded here.

Test [1] deals with T1, endogenous BMP4 precursor protein (50 kDa precursor form, fetal mouse tissue) (mouse) (UniProt P21275).
T1 sequence (looked up): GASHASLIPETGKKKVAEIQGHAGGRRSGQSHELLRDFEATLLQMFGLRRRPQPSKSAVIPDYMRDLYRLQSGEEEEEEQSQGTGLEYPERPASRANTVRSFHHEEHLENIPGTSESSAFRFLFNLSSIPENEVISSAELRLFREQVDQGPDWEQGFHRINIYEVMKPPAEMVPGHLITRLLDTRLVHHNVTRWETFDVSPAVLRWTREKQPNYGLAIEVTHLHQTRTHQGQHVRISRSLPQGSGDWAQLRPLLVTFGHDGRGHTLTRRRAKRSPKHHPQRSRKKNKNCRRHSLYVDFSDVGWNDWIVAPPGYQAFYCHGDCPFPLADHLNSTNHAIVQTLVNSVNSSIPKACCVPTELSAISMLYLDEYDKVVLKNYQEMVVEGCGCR
Kind of test: co-immunoprecipitation with anti-Gremlin antibody from fetal mouse lung lysate, anti-BMP4 immunoblot.

Test [2] concerns the target T1, endogenous BMP4 precursor protein (50 kDa precursor form, fetal mouse tissue) (mouse). Kind of test: co-immunoprecipitation, immunoblot (FIG. 1B legend). Background: In western blotting, separated proteins are transferred to a membrane and probed.

B1: endogenous Gremlin protein (fetal mouse lung and kidney tissue lysates) (protein)
chain: KKKGSQGAIPPPDKAQHNDSEQTQSPPQPGSRTRGRGQGRGTAMPGEEVLESSQEALHVTERKYLKRDWCKTQPLKQTIHEEGCNSRTIINRFCYGQCNSFYIPRHIRKEEGSFQSCSFCKPKKFTTMMVTLNCPELQPPTKKKRVTRVKQCRCISIDLD
For the molecule B1, the binding entry in test [1] and in test [2] was “binds” throughout.
